From article PMC5467387
These are yes or no findings as the source states them, for the method shown. Binding seen in cells or lysates may run through a third protein. Some results given as binding are weak or reduced against the parent protein; the word gives no strength.

Sequences of proteins named here, by UniProt entry; tags and fusion partners are left off.
UniProt Q04206: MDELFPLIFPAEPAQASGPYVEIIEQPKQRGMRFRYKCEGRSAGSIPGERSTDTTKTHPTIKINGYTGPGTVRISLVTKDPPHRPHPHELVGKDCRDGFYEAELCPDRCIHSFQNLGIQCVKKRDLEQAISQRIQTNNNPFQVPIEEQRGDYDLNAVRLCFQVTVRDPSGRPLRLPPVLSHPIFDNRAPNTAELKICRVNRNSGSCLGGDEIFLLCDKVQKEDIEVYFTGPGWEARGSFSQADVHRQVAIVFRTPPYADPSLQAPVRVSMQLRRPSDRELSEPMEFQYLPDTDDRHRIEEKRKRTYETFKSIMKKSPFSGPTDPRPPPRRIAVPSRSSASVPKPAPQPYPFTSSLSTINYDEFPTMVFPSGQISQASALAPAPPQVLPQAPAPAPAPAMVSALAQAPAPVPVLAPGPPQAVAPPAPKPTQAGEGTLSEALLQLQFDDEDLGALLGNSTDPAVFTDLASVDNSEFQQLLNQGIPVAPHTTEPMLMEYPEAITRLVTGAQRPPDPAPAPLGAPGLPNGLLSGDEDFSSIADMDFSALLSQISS

Target: T1, Lipopolysaccharide-binding protein (human (endogenous in A549)) (UniProt P18428)
T1 sequence: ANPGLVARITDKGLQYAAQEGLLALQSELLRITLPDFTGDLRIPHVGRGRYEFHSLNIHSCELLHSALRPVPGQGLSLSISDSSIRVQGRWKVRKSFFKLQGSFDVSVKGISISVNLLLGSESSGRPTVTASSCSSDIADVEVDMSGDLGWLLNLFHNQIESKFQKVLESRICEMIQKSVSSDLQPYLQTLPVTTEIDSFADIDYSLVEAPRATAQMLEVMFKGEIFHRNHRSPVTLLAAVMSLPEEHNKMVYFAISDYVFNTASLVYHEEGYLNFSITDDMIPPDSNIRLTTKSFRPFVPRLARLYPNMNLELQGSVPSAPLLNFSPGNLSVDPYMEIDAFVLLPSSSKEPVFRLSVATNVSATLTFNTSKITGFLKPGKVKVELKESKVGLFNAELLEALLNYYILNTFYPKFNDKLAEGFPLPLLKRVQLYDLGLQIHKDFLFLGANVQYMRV
Test: co-IP; 3 ug anti-LBP antibody (ab169776) added to 500 ug extracted A549 proteins, 4°C 60 min, Magnetic Protein G Beads 4°C overnight, four PBS washes; blots for phospho-p38 MAPK and phospho-p65; rabbit IgG and no antibody as controls; cells untreated (control) or treated with LPS 10 ug/mL (lysed 1 h after), with or without LBP plasmid, LBP shRNA plasmid, SB203580 or SC-514

binding: binds weakly
Substance: phospho-p65 (from UniProt Q04206 1-551)
